Like-named read-outs stand apart in the source and are kept apart here. These are yes or no findings as the source states them, for the method shown. In cells and extracts the contact can be indirect. These calls come from enrichment with a bait or labelling near it, and not all partners need be listed. For part of these data: No binding means not detected with the bait.

Common to all, as to experiment: affinity purification with mass spectrometry
Experiment [1] addresses T1, Upf1-TAP (S. cerevisiae), P30771.
T1 chain: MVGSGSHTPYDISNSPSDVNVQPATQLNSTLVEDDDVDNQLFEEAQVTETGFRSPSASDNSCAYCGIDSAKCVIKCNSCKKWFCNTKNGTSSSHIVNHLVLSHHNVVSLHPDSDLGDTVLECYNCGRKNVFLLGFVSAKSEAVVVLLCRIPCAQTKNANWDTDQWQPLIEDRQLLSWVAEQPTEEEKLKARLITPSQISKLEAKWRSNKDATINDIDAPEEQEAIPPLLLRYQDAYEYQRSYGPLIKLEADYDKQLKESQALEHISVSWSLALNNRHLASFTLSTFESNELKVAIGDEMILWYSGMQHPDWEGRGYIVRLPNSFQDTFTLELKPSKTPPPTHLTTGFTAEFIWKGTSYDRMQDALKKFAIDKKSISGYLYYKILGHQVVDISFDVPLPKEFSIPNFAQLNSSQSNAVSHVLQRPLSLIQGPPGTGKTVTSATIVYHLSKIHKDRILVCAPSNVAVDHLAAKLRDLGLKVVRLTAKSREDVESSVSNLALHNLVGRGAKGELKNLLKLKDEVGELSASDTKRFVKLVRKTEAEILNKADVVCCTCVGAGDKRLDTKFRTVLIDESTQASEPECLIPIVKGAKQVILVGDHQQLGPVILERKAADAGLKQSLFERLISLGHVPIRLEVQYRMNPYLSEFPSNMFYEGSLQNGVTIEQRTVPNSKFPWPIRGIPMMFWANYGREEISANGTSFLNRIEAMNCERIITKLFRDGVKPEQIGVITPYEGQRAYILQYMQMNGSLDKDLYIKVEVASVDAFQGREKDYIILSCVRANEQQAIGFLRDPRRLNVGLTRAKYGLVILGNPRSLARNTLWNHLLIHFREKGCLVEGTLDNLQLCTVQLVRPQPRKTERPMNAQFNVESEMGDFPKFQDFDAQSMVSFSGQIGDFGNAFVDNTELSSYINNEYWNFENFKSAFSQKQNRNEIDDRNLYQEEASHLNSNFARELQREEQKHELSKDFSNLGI
The conditions noted are these: remark: other sources report otherwise.

The target of experiment [2] is T2, Dcp1-TAP (S. cerevisiae) (UniProt Q12517).
T2 sequence: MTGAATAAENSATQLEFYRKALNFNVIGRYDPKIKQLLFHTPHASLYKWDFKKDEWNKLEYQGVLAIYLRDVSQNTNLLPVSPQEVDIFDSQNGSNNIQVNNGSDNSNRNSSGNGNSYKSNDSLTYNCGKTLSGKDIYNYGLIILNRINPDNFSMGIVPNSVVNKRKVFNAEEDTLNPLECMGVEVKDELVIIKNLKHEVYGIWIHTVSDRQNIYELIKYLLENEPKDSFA

Experiment [3] has as its target T3, Ebs1-TAP (S. cerevisiae) (UniProt Q03466).
T3 sequence: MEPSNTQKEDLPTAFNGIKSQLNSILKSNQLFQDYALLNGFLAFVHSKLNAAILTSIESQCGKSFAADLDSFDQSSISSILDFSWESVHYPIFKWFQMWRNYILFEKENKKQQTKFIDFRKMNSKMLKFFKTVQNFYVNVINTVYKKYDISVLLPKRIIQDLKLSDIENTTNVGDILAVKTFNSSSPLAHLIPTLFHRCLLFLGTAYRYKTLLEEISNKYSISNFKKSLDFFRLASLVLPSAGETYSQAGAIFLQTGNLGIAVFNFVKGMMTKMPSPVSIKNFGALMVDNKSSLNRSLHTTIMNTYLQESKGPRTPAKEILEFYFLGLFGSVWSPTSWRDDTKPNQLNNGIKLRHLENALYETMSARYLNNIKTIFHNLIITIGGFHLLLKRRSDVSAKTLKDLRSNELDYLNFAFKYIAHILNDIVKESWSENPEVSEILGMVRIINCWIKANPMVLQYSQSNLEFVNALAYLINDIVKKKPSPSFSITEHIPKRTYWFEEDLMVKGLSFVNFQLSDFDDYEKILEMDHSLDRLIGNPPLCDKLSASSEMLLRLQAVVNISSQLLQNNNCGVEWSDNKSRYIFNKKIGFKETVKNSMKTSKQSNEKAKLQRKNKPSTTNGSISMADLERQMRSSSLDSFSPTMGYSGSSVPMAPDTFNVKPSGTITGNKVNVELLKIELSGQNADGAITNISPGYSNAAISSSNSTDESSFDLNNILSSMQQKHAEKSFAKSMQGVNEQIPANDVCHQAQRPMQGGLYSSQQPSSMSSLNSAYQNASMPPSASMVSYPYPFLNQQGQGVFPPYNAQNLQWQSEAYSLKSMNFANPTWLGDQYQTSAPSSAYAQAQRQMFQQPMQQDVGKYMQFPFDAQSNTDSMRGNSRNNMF

The target in experiment [4] is T4, Hrr25-TAP (S. cerevisiae) (UniProt P29295).
T4 sequence: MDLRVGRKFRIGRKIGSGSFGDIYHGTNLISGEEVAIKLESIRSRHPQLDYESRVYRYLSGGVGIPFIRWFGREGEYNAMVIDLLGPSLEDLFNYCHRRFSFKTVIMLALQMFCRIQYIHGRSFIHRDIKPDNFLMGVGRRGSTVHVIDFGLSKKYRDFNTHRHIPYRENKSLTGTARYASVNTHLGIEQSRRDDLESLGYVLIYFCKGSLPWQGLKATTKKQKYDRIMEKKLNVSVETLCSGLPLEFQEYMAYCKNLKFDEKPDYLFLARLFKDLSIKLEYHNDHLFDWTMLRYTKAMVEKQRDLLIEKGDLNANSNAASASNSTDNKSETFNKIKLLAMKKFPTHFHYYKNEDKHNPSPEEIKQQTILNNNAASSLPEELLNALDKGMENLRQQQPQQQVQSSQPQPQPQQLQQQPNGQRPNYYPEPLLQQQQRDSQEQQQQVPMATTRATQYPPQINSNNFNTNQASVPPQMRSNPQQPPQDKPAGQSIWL

The target in experiment [5] is T5, Nmd4-TAP (S. cerevisiae) (UniProt Q12129).
T5 sequence: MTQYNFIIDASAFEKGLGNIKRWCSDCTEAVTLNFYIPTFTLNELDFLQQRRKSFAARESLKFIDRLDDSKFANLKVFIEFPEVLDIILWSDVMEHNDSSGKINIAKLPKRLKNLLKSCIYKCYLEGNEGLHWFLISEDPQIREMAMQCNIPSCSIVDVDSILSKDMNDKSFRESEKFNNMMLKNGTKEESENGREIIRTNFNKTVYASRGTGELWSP

Experiment [6] deals with T2, Dcp1-TAP (S. cerevisiae). The source holds these as a separate data set.
The target in experiment [7] is T3, Ebs1-TAP (S. cerevisiae). The source holds these as a separate data set.
Experiment [8] has as its target T4, Hrr25-TAP (S. cerevisiae). The source holds these as a separate data set.
Experiment [9] concerns the target T5, Nmd4-TAP (S. cerevisiae). The source holds these as a separate data set.

B1: eRF3 (yeast Sup35), P05453 1-685 (protein)
chain: MSDSNQGNNQQNYQQYSQNGNQQQGNNRYQGYQAYNAQAQPAGGYYQNYQGYSGYQQGGYQQYNPDAGYQQQYNPQGGYQQYNPQGGYQQQFNPQGGRGNYKNFNYNNNLQGYQAGFQPQSQGMSLNDFQKQQKQAAPKPKKTLKLVSSSGIKLANATKKVGTKPAESDKKEEEKSAETKEPTKEPTKVEEPVKKEEKPVQTEEKTEEKSELPKVEDLKISESTHNTNNANVTSADALIKEQEEEVDDEVVNDMFGGKDHVSLIFMGHVDAGKSTMGGNLLYLTGSVDKRTIEKYEREAKDAGRQGWYLSWVMDTNKEERNDGKTIEVGKAYFETEKRRYTILDAPGHKMYVSEMIGGASQADVGVLVISARKGEYETGFERGGQTREHALLAKTQGVNKMVVVVNKMDDPTVNWSKERYDQCVSNVSNFLRAIGYNIKTDVVFMPVSGYSGANLKDHVDPKECPWYTGPTLLEYLDTMNHVDRHINAPFMLPIAAKMKDLGTIVEGKIESGHIKKGQSTLLMPNKTAVEIQNIYNETENEVDMAMCGEQVKLRIKGVEEEDISPGFVLTSPKNPIKSVTKFVAQIAIVELKSIIAAGFSCVMHVHTAIEEVHIVKLLHKLEKGTNRKSKKPPAFAKKGMKVIAVLETEAPVCVETYQDYPQLGRFTLRDQGTTIAIGKIVKIAE
For the molecule B1, the binding entry in experiment [1] is on record as “no binding”.

B2: Upf1 (protein, UniProt P30771 1-971)
chain: T1 chain
As for B2, the binding result (in the experiment with Dcp1-TAP (S. cerevisiae) [2]; with Ebs1-TAP (S. cerevisiae) [3]; in experiment [4]; with Nmd4-TAP (S. cerevisiae) [5]; with Dcp1-TAP (S. cerevisiae) [6]; with Ebs1-TAP (S. cerevisiae) [7]) was “binds” in each case. Also, the binding entry (in experiment [8]; in the experiment with Nmd4-TAP (S. cerevisiae) [9]) was “binds” throughout.

(Values after article doi:10.1101/266833.)
